# From the supplement of paper PMC12819154, “High-throughput peptide-centric local stability assay extends protein–ligand identification to membrane proteins, tissues and bacteria” (Nature Structural & Molecular Biology, 2025)
# Amino acid sequences for entries named in this document (tags omitted). A change or cut given only in a name is not applied to a line headed by its entry.
# UniProt Q9ULL5: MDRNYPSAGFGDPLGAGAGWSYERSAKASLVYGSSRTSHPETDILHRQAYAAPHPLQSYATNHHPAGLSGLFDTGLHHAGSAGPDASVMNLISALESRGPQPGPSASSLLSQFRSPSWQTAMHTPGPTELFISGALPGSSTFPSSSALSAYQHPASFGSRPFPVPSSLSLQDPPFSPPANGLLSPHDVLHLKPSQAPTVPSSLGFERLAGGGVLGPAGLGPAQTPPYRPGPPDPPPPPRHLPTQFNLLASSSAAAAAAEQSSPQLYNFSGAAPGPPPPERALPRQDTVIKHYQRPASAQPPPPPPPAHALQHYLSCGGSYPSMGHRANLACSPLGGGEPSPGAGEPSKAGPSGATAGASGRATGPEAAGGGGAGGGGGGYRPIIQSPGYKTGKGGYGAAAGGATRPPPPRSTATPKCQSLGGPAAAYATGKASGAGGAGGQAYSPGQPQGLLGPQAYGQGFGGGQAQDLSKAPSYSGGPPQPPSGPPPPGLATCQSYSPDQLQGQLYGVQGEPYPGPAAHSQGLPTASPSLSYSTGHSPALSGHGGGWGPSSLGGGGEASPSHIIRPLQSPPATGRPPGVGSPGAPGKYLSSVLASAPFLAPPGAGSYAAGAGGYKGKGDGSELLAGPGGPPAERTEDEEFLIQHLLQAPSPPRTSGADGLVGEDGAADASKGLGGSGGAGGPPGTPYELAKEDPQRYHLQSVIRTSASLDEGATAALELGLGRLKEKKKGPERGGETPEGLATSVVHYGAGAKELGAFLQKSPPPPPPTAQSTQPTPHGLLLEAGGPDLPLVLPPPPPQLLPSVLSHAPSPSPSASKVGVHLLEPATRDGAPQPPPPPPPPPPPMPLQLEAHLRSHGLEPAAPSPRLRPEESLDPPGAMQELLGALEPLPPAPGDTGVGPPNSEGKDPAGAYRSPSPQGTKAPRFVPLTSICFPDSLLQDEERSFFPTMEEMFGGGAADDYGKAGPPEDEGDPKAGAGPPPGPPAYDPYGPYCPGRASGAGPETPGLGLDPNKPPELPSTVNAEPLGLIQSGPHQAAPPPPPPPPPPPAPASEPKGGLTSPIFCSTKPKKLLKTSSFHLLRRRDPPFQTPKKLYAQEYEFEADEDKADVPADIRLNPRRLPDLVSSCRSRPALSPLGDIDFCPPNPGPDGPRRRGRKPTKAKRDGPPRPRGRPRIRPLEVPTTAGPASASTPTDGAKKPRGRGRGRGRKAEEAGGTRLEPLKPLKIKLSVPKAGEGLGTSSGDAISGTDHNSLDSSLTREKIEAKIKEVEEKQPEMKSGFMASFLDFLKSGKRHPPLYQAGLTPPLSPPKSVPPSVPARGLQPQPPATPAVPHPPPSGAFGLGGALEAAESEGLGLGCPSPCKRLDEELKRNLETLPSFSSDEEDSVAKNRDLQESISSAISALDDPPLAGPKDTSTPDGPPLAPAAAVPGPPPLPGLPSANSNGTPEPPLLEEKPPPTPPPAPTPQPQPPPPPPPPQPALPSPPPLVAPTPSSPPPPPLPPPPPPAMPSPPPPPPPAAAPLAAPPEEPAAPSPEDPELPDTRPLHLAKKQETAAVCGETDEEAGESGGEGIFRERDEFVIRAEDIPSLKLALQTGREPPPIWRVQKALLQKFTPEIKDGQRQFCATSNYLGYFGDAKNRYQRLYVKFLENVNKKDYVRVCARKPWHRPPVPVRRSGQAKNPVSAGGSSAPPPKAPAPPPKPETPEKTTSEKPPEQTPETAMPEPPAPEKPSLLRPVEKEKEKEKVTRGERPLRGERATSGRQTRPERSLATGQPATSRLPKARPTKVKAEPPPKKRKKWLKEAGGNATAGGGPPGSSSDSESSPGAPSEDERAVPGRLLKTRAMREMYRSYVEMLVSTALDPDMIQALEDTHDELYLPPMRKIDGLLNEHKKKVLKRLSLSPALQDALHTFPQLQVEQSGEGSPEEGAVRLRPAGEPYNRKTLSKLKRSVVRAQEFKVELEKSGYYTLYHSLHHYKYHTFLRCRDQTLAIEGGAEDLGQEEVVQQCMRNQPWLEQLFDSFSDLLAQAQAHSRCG
# UniProt Q9UQM7, whole entry: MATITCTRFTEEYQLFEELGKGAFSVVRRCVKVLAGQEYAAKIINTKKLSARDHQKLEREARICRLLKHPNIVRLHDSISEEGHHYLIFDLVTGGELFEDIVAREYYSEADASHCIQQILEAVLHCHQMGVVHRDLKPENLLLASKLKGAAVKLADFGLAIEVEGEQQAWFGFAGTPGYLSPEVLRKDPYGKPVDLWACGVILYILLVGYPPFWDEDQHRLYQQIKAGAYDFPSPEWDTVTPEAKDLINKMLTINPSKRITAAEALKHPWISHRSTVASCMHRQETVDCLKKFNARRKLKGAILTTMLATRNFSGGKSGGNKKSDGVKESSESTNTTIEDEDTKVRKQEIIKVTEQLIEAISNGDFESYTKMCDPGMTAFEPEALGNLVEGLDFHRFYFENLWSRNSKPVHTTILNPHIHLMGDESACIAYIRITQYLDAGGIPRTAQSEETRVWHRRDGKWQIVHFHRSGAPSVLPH
# UniProt Q9UPW0: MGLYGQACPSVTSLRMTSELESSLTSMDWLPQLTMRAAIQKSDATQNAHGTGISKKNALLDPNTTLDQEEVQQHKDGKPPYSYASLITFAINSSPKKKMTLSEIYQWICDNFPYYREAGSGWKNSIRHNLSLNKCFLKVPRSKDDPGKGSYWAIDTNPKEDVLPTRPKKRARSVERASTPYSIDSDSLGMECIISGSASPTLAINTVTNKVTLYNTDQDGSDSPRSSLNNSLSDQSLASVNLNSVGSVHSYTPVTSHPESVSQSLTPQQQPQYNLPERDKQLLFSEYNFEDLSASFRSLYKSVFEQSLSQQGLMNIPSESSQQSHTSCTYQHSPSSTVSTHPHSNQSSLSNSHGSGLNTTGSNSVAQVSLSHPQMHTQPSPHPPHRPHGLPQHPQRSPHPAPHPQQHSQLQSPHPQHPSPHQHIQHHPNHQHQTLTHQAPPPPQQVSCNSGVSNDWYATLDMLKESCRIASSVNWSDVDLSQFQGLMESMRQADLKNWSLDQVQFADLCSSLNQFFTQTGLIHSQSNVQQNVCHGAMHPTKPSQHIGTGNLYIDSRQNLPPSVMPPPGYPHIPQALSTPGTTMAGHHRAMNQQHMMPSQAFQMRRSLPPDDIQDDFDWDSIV
# UniProt Q9UP52: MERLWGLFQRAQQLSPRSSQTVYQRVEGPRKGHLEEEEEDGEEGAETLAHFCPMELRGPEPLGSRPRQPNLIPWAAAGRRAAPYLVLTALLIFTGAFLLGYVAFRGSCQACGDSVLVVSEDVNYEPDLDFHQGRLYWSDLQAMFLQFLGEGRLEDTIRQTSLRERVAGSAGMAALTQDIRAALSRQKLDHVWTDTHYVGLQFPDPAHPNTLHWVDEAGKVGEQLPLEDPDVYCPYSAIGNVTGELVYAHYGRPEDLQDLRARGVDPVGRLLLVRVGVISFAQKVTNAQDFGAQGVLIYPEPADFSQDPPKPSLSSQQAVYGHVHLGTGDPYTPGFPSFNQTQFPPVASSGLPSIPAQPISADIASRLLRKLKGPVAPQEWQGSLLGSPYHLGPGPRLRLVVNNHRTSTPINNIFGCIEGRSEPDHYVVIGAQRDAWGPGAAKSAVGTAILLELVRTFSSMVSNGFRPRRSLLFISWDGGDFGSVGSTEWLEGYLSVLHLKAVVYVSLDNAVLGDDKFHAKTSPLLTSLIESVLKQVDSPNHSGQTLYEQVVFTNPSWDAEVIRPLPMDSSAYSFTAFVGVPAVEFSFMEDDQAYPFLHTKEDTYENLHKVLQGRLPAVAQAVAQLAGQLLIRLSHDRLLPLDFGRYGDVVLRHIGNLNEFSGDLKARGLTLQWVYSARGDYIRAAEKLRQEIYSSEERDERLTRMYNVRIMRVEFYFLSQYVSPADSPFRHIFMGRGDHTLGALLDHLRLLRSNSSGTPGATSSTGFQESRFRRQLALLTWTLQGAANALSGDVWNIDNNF
# UniProt Q9UI43: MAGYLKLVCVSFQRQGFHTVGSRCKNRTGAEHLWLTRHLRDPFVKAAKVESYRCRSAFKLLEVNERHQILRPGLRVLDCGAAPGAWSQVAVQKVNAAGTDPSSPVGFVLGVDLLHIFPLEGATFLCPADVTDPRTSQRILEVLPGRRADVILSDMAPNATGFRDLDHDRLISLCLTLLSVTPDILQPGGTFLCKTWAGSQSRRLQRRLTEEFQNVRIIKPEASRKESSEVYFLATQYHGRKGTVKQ
# UniProt Q9ULD4: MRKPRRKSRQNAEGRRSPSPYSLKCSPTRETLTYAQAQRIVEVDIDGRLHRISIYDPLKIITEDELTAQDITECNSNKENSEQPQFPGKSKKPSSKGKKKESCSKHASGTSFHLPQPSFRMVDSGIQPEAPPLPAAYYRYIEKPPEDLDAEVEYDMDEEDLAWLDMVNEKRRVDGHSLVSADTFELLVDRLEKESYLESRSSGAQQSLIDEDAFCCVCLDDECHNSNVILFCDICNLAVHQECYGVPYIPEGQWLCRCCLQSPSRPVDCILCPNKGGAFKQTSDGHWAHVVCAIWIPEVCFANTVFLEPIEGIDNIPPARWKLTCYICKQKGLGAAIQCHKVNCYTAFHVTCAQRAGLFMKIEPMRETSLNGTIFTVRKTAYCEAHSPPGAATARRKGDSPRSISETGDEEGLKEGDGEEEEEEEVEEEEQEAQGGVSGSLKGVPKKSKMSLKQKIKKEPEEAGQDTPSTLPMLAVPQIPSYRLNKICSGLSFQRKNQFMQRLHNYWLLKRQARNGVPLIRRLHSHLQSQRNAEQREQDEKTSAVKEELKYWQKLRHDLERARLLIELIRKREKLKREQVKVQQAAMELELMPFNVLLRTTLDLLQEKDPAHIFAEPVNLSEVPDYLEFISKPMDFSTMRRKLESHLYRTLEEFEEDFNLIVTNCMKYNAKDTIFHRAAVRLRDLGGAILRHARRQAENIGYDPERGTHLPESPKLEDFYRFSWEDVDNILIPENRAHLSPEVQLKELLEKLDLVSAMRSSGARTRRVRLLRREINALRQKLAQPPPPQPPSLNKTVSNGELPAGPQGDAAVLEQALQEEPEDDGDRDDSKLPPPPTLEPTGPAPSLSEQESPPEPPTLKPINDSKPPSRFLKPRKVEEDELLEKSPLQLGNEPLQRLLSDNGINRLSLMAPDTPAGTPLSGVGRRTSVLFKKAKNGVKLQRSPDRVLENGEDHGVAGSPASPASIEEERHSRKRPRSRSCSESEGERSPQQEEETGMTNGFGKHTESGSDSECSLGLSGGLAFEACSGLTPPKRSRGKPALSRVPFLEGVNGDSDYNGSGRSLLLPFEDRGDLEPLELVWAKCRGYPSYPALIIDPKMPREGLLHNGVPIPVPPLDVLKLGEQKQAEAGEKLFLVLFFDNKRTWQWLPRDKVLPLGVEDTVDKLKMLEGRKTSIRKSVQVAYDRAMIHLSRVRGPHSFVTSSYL
# UniProt Q9UNS1: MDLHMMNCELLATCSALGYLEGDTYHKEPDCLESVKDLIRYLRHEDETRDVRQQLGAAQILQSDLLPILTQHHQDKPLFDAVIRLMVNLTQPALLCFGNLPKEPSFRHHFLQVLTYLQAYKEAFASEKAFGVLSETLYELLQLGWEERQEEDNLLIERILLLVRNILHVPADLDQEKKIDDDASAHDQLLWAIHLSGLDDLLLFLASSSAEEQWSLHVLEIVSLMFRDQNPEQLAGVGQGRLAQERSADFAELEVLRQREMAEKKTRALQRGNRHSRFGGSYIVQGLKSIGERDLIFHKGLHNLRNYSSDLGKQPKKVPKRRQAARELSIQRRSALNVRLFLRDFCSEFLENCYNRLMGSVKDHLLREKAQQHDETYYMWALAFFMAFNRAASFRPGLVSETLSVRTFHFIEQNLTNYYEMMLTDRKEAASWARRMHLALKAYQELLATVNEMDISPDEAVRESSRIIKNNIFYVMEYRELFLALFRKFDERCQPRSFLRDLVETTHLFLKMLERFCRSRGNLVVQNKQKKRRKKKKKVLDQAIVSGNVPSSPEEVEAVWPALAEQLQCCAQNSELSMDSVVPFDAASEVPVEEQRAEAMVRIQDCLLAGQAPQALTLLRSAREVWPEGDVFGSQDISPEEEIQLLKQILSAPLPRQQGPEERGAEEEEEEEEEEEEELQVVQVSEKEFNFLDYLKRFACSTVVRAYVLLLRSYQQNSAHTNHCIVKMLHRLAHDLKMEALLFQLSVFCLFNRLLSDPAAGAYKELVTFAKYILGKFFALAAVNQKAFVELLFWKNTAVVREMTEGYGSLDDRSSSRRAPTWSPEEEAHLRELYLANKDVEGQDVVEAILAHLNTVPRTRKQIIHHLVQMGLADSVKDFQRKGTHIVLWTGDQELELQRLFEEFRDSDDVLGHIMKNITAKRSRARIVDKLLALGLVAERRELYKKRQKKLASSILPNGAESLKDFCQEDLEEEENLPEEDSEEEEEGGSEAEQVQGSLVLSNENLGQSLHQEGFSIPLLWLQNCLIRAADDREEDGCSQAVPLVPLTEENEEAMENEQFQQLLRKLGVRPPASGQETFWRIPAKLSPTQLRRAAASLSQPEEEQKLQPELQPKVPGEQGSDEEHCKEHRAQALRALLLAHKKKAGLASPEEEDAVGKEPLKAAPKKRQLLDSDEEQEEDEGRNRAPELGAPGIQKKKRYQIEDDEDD
# This is one part of the list. Most entries show no effect beyond the scatter of the controls.
# Compound: Cc1nc(Nc2ncc(C(=O)Nc3c(C)cccc3Cl)s2)cc(N2CCN(CCO)CC2)n1 [dasatinib]
# Assay: log2 fold change of tryptic peptide abundance, ligand vs vehicle (limited proteolysis) (log2 ratio); higher = more trypsin-susceptible (destabilized)
# Settings: ligand concentration: 5 uM; sample: K562 cleared lysate
target,measurement,value
"DNAJC12 (peptide sequence: EILTNEESR, peptide start residue: 64) (UniProt Q9UKB3)",log2 fold change,-0.31
"UniProt Q9UK80 (peptide sequence: TEPPASHGSFHMISAR, peptide start residue: 174)",log2 fold change,-0.0055
"CHMP2B (peptide sequence: QLVHLRK, peptide start residue: 64) (UniProt Q9UQN3)",log2 fold change,-0.318
"EXOC7 (peptide sequence: ALEDFADNIKNDPDKEYNMPK, peptide start residue: 475) (UniProt Q9UPT5)",log2 fold change,-0.554
"PRR12 (peptide sequence: TSHPETDILHR, peptide start residue: 37) (UniProt Q9ULL5)",log2 fold change,-0.346
"KIDINS220 (peptide sequence: VSQNSLGEMTK, peptide start residue: 881) (UniProt Q9ULH0)",log2 fold change,0.352
"UniProt Q9ULS6 (peptide sequence: FDGQPLGNFRR, peptide start residue: 161)",log2 fold change,0.0216
"LSM7 (peptide sequence: QLGLVVCR, peptide start residue: 70) (UniProt Q9UK45)",log2 fold change,-0.0733
"POMP (peptide sequence: NIQGLFAPLK, peptide start residue: 69) (UniProt Q9Y244)",log2 fold change,-0.25
"CAMK2A (peptide sequence: DHQKLER, peptide start residue: 54) (UniProt Q9UQM7)",log2 fold change,-0.0771
"RCOR1 (peptide sequence: EVPPTETVPQVK, peptide start residue: 286) (UniProt Q9UKL0)",log2 fold change,0.219
"UBQLN1 (peptide sequence: EKEEFAVPENSSVQQFK, peptide start residue: 46) (UniProt Q9UMX0)",log2 fold change,-0.0774
"FOXJ3 (peptide sequence: HNLSLNKCFLK, peptide start residue: 128) (UniProt Q9UPW0)",log2 fold change,0.51
"SATB2 (peptide sequence: AAPAEIDQR, peptide start residue: 725) (UniProt Q9UPW6)",log2 fold change,0.132
"UniProt Q9UMZ2 (peptide sequence: DTIPQTSEQK, peptide start residue: 969)",log2 fold change,0.245
"TFR2 (peptide sequence: LWGLFQR, peptide start residue: 4) (UniProt Q9UP52)",log2 fold change,-0.0937
"MRM2 (peptide sequence: KESSEVYFLATQYHGRK, peptide start residue: 225) (UniProt Q9UI43)",log2 fold change,-0.192
"SCOC (peptide sequence: VDAVKEENLK, peptide start residue: 118) (UniProt Q9UIL1)",log2 fold change,-0.0189
"FBXO5 (peptide sequence: ASCKIGPLPGTKK, peptide start residue: 427) (UniProt Q9UKT4)",log2 fold change,-0.517
"HACL1 (peptide sequence: GAAYAHAEESIKK, peptide start residue: 223) (UniProt Q9UJ83)",log2 fold change,0.252
"ANKRD50 (peptide sequence: MLAMSYTCQAK, peptide start residue: 435) (UniProt Q9ULJ7)",log2 fold change,0.521
"UniProt Q9ULD4 (peptide sequence: IVEVDIDGR, peptide start residue: 40)",log2 fold change,-0.401
"TRMT6 (peptide sequence: AATACFGFPK, peptide start residue: 239) (UniProt Q9UJA5)",log2 fold change,-0.416
"ZHX1 (peptide sequence: YDALSEHNLK, peptide start residue: 114) (UniProt Q9UKY1)",log2 fold change,-0.222
"UniProt Q9UHD8 (peptide sequence: VVNIVPVIAK, peptide start residue: 436)",log2 fold change,-0.204
"MCTS1 (peptide sequence: GIGIENIHYLNDGLWHMK, peptide start residue: 161) (UniProt Q9ULC4)",log2 fold change,0.308
"TIMELESS (peptide sequence: AGLASPEEEDAVGKEPLK, peptide start residue: 1145) (UniProt Q9UNS1)",log2 fold change,-0.131
"RABGEF1 (peptide sequence: NLDLLSQLNER, peptide start residue: 413) (UniProt Q9UJ41)",log2 fold change,0.0582
"AKAP8L (peptide sequence: TFYEDEMASHLDSK, peptide start residue: 398) (UniProt Q9ULX6)",log2 fold change,0.255
"TBC1D2B (peptide sequence: DQLELDR, peptide start residue: 482) (UniProt Q9UPU7)",log2 fold change,0.36

# Laid out differently: entries from further up.
target | measurement | value
CHMP2B (peptide sequence: QLVHLRK, peptide start residue: 64) (UniProt Q9UQN3) | log2 fold change | -0.318
EXOC7 (peptide sequence: ALEDFADNIKNDPDKEYNMPK, peptide start residue: 475) (UniProt Q9UPT5) | log2 fold change | -0.554
